# The list shows a part of the results.
# B1: PX14343G-pdi-535-24-535 (Parabacteroides distasonis) (protein)
# chain: LDTVPKDQLAPSTTWQTEADAKGFIVGCYKDLLDGNTLLYLDCGSDIGYNNFPWEGFRPWGDGSLSSSNPGQILYDYKSIRKANTFLENVDKVTFSSDAVKANYVAQAKAIRAYKYFLMNWWYGGVPIISSYSSADEAKVERNTEQEVRDYIAKDLDEALAGIAEAPEARGYIAKGAVLAIKMREALYYGDWQKAKDAAKAIIDLKQYELDPDYTNLFKVSGVDSKEIILADQNIETLDGLGTIGQMYNNVDQGWSSIVPTQNLVDMYEMSDGLTKEESKTYDAKHPFANRDPRMAMTILYPGRDWRGDVLNTLDEKLQDGTVNKNFPTYTDNASKSALTWAKYLDPMDQYGDVWSSGACPIVFRYAEVLLTYAEAANELSGPSDEIYGYLNQIRQRVGMGEVDKAKYGTKDKLRELIRRERTVELAGEGLRRADIVRWQEDGKMLAEKVMNGDLLRVTGTINYGESEPTKRAEITGTAVIETRQFSSRNRYLPIPQTSMDKNPNLKQNPGY
# Columns and labels:
# Test in all cases: glycan array binding signal (z-score within array); higher = stronger binding
# Conditions in all cases: glycan notation: IUPAC condensed, linker removed
# [1] = target: GlcNAc(b1-3)Gal(b1-4)GlcNAc(b1-3)Gal(b1-4)GlcNAc(b1-2)Man(a1-3)[GlcNAc(b1-3)Gal(b1-4)GlcNAc(b1-3)Gal(b1-4)GlcNAc(b1-2)Man(a1-6)]Man(b1-4)GlcNAc(b1-4)[Fuc(a1-6)]GlcNAc
# How it was run: (§1)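 From the Consortium for Functional Glycomics database, 3228 arrays were curated, keeping only those whose protein sequence was available. Binding is given as a within-array Z-score averaged across arrays sharing a protein sequence and across linkers. Negative Z-scores can be read as non-binding.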
# [2] = target: GlcNAc(b1-3)Gal(b1-4)GlcNAc(b1-3)Gal(b1-4)GlcNAc(b1-2)[GlcNAc(b1-3)Gal(b1-4)GlcNAc(b1-3)Gal(b1-4)GlcNAc(b1-6)]Man(a1-6)[GlcNAc(b1-3)Gal(b1-4)GlcNAc(b1-3)Gal(b1-4)GlcNAc(b1-2)Man(a1-3)]Man(b1-4)GlcNAc(b1-4)[Fuc(a1-6)]GlcNAc
# How it was run: as §1
# [3] = target: GlcNAc(b1-3)Gal(b1-4)GlcNAc(b1-3)Gal(b1-4)GlcNAc(b1-3)Gal(b1-4)GlcNAc(b1-2)Man(a1-3)[GlcNAc(b1-3)Gal(b1-4)GlcNAc(b1-3)Gal(b1-4)GlcNAc(b1-3)Gal(b1-4)GlcNAc(b1-2)Man(a1-6)]Man(b1-4)GlcNAc(b1-4)GlcNAc
# How it was run: as §1
# [4] = target: GlcNAc(b1-3)Gal(b1-4)GlcNAc(b1-3)Gal(b1-4)GlcNAc(b1-3)Gal(b1-4)GlcNAc(b1-2)Man(a1-3)[GlcNAc(b1-3)Gal(b1-4)GlcNAc(b1-3)Gal(b1-4)GlcNAc(b1-3)Gal(b1-4)GlcNAc(b1-2)Man(a1-6)]Man(b1-4)GlcNAc(b1-4)[Fuc(a1-6)]GlcNAc
# How it was run: as §1
# [5] = target: GlcNAc(b1-3)Gal(b1-4)GlcNAc(b1-3)Gal(b1-4)GlcNAc(b1-3)Gal(b1-4)GlcNAc(b1-2)[GlcNAc(b1-3)Gal(b1-4)GlcNAc(b1-3)Gal(b1-4)GlcNAc(b1-3)Gal(b1-4)GlcNAc(b1-6)]Man(a1-6)[GlcNAc(b1-3)Gal(b1-4)GlcNAc(b1-3)Gal(b1-4)GlcNAc(b1-3)Gal(b1-4)GlcNAc(b1-2)Man(a1-3)]Man(b1-4)GlcNAc(b1-4)[Fuc(a1-6)]GlcNAc
# How it was run: as §1
# [6] = target: GlcNAc(b1-3)Gal(b1-4)GlcNAc(b1-3)Gal(b1-4)GlcNAc(b1-3)Gal(b1-4)GlcNAc(b1-3)Gal(b1-4)GlcNAc(b1-2)Man(a1-3)[GlcNAc(b1-3)Gal(b1-4)GlcNAc(b1-3)Gal(b1-4)GlcNAc(b1-3)Gal(b1-4)GlcNAc(b1-3)Gal(b1-4)GlcNAc(b1-2)Man(a1-6)]Man(b1-4)GlcNAc(b1-4)GlcNAc
# How it was run: as §1
# [7] = target: GlcNAc(b1-3)Gal(b1-4)GlcNAc(b1-3)Gal(b1-4)GlcNAc(b1-3)Gal(b1-4)GlcNAc(b1-3)Gal(b1-4)GlcNAc(b1-2)Man(a1-3)[GlcNAc(b1-3)Gal(b1-4)GlcNAc(b1-3)Gal(b1-4)GlcNAc(b1-3)Gal(b1-4)GlcNAc(b1-3)Gal(b1-4)GlcNAc(b1-2)Man(a1-6)]Man(b1-4)GlcNAc(b1-4)[Fuc(a1-6)]GlcNAc
# How it was run: as §1
# [8] = target: GlcNAc(b1-3)Gal(b1-4)GlcNAc(b1-3)Gal(b1-4)GlcNAc(b1-3)Gal(b1-4)GlcNAc(b1-3)Gal(b1-4)GlcNAc(b1-2)[GlcNAc(b1-3)Gal(b1-4)GlcNAc(b1-3)Gal(b1-4)GlcNAc(b1-3)Gal(b1-4)GlcNAc(b1-3)Gal(b1-4)GlcNAc(b1-6)]Man(a1-6)[GlcNAc(b1-3)Gal(b1-4)GlcNAc(b1-3)Gal(b1-4)GlcNAc(b1-3)Gal(b1-4)GlcNAc(b1-3)Gal(b1-4)GlcNAc(b1-2)Man(a1-3)]Man(b1-4)GlcNAc(b1-4)[Fuc(a1-6)]GlcNAc
# How it was run: as §1
# [9] = target: GlcNAc(b1-3)Gal(b1-4)GlcNAc(b1-3)Gal(b1-4)GlcNAc(b1-3)GalNAc
# How it was run: as §1
# [10] = target: GlcNAc(b1-3)Gal(b1-4)GlcNAc(b1-3)GalNAc
# How it was run: as §1
# [11] = target: GlcNAc(b1-3)Gal(b1-4)GlcNAc(b1-3)[GlcNAc(b1-3)Gal(b1-4)GlcNAc(b1-3)]GalNAc
# How it was run: as §1
# [12] = target: GlcNAc(b1-3)Gal(b1-4)GlcNAc(b1-6)[Gal(b1-3)]GalNAc
# How it was run: as §1
# [13] = target: GlcNAc(b1-3)Gal(b1-4)GlcNAc(b1-6)[GlcNAc(b1-3)Gal(b1-3)]GalNAc
# How it was run: as §1
# [14] = target: GlcNAc(b1-3)Gal(b1-4)GlcNAc(b1-6)[GlcNAc(b1-3)]Gal(b1-4)GlcNAc
# How it was run: as §1
# GlcNAc(b1-3)GalNAc = target: GlcNAc(b1-3)GalNAc
# How it was run: as §1
# GlcNAc(b1-3)Man = target: GlcNAc(b1-3)Man
# How it was run: as §1
# [15] = target: GlcNAc(b1-3)[GlcNAc(b1-4)][GlcNAc(b1-6)]GlcNAc
# How it was run: as §1
# [16] = target: GlcNAc(b1-3)[GlcNAc(b1-6)]Gal(b1-4)GlcNAc
# How it was run: as §1
# [17] = target: GlcNAc(b1-3)[GlcNAc(b1-6)]GalNAc
# How it was run: as §1
# [18] = target: GlcNAc(b1-4)Gal(b1-4)GlcNAc
# How it was run: as §1
# GlcNAc(b1-4)GlcNAc = target: GlcNAc(b1-4)GlcNAc
# How it was run: as §1
# [19] = target: GlcNAc(b1-4)GlcNAc(b1-4)GlcNAc
# How it was run: as §1
# [20] = target: GlcNAc(b1-4)GlcNAc(b1-4)GlcNAc(b1-4)GlcNAc(b1-4)GlcNAc
# How it was run: as §1
# [21] = target: GlcNAc(b1-4)GlcNAc(b1-4)GlcNAc(b1-4)GlcNAc(b1-4)GlcNAc(b1-4)GlcNAc
# How it was run: as §1
# [22] = target: GlcNAc(b1-4)[GlcNAc(b1-6)]GalNAc
# How it was run: as §1
# [23] = target: GlcNAc(b1-6)Gal(b1-4)GlcNAc
# How it was run: as §1
# GlcNAc(b1-6)GalNAc = target: GlcNAc(b1-6)GalNAc
# How it was run: as §1
# [24] = target: GlcNAc6S(b1-3)Gal(b1-4)GlcNAc
# How it was run: as §1
# Kdn(a2-3)Gal(b1-3)GalNAc = target: Kdn(a2-3)Gal(b1-3)GalNAc
# How it was run: as §1
# Kdn(a2-3)Gal(b1-3)GlcNAc = target: Kdn(a2-3)Gal(b1-3)GlcNAc
# How it was run: as §1
# Kdn(a2-3)Gal(b1-4)Glc = target: Kdn(a2-3)Gal(b1-4)Glc
# How it was run: as §1
# Kdn(a2-3)Gal(b1-4)GlcNAc = target: Kdn(a2-3)Gal(b1-4)GlcNAc
# How it was run: as §1
# [25] = target: Kdn(a2-3)Gal(b1-4)[Fuc(a1-3)]GlcNAc
# How it was run: as §1
# Kdn(a2-6)Gal(b1-4)GlcNAc = target: Kdn(a2-6)Gal(b1-4)GlcNAc
# How it was run: as §1
# [26] = target: Man(a1-2)Man(a1-2)Man(a1-3)Man
# How it was run: as §1
# [27] = target: Man(a1-2)Man(a1-2)Man(a1-6)[Man(a1-3)]Man
# How it was run: as §1
# Man(a1-2)Man(a1-3)Man = target: Man(a1-2)Man(a1-3)Man
# How it was run: as §1
# [28] = target: Man(a1-2)Man(a1-3)[Man(a1-2)Man(a1-6)]Man
# How it was run: as §1
binder,measurement,setting,value
B1,glycan array binding signal (z-score),[1],0.286
same,glycan array binding signal (z-score),[2],-0.028
same,glycan array binding signal (z-score),[3],-0.133
same,glycan array binding signal (z-score),[4],0.497
same,glycan array binding signal (z-score),[5],0.865
same,glycan array binding signal (z-score),[6],0.208
same,glycan array binding signal (z-score),[7],0.685
same,glycan array binding signal (z-score),[8],0.346
same,glycan array binding signal (z-score),[9],-0.867
same,glycan array binding signal (z-score),[10],-0.147
same,glycan array binding signal (z-score),[11],0.31
same,glycan array binding signal (z-score),[12],-1.23
same,glycan array binding signal (z-score),[13],0.869
same,glycan array binding signal (z-score),[14],0.049
same,glycan array binding signal (z-score),GlcNAc(b1-3)GalNAc,-0.28
same,glycan array binding signal (z-score),GlcNAc(b1-3)Man,-0.358
same,glycan array binding signal (z-score),[15],0.73
same,glycan array binding signal (z-score),[16],1
same,glycan array binding signal (z-score),[17],-0.383
same,glycan array binding signal (z-score),[18],-0.991
same,glycan array binding signal (z-score),GlcNAc(b1-4)GlcNAc,-0.119
same,glycan array binding signal (z-score),[19],0.168
same,glycan array binding signal (z-score),[20],0.26
same,glycan array binding signal (z-score),[21],0.028
same,glycan array binding signal (z-score),[22],0.546
same,glycan array binding signal (z-score),[23],-0.303
same,glycan array binding signal (z-score),GlcNAc(b1-6)GalNAc,0.185
same,glycan array binding signal (z-score),[24],-0.541
same,glycan array binding signal (z-score),Kdn(a2-3)Gal(b1-3)GalNAc,-0.224
same,glycan array binding signal (z-score),Kdn(a2-3)Gal(b1-3)GlcNAc,0.143
same,glycan array binding signal (z-score),Kdn(a2-3)Gal(b1-4)Glc,0.265
same,glycan array binding signal (z-score),Kdn(a2-3)Gal(b1-4)GlcNAc,-0.191
same,glycan array binding signal (z-score),[25],-0.272
same,glycan array binding signal (z-score),Kdn(a2-6)Gal(b1-4)GlcNAc,0.115
same,glycan array binding signal (z-score),[26],0.086
same,glycan array binding signal (z-score),[27],-0.28
same,glycan array binding signal (z-score),Man(a1-2)Man(a1-3)Man,-0.387
same,glycan array binding signal (z-score),[28],-0.447

# Looked up one by one from the entries so far, two records:
binder,measurement,setting,value
B1,glycan array binding signal (z-score),[12],-1.23
same,glycan array binding signal (z-score),[14],0.049
